From PMC5958098, “The trimeric solution structure and fucose-binding mechanism of the core fucosylation-specific lectin PhoSL” (Scientific Reports, 2018)
Results are given in words; binding and its absence hold for the method and conditions named. Some results given as binding are weak or reduced against the parent protein; the word gives no strength.

Target: PhoSL peptide (core α1–6 fucosylation-specific lectin from Pholiota squarrosa), chemically synthesized, 40 residues (Pholiota squarrosa)
Assay: NMR solution structure; 0.3 mM PhoSL peptide, 20 mM d11-Tris-HCl pH 7.5, 1 mM d10-DTT, 308 K; symmetric trimer calculated from NOEs with NCS restraints; both purified

B1: PhoSL peptide (core α1–6 fucosylation-specific lectin from Pholiota squarrosa), chemically synthesized, 40 residues (peptide)
chain: APVPVTKLVCDGDTYKCTAYLDYGDGKWVAQWDTAVFHTT
notes: PhoSL lectin of Pholiota squarrosa; it corresponds to the first of three PhoSL-like repeats of the 180-residue polypeptide; numbers count on: the 40-residue peptide; No N-terminal acetylation and no C-terminal amidation; Cys10 and Cys17 were reduced (DTT) in the NMR samples; Homotrimer by gel filtration combined with cross-linking, and by the NMR structure; also called PhoSL trimer; source: …
  binding: binds
